According to doi:10.1101/2025.06.10.658772 (bioRxiv, 2025):
Results are given in words; binding and its absence hold for the method and conditions named. In cells and extracts the contact can be indirect. Some entries that bind do so weakly or less than the wild type. For some assays here: Sequences can lack the tags named with a protein.

Sequences of proteins named here, by UniProt entry; tags and fusion partners are left off.
UniProt P32121: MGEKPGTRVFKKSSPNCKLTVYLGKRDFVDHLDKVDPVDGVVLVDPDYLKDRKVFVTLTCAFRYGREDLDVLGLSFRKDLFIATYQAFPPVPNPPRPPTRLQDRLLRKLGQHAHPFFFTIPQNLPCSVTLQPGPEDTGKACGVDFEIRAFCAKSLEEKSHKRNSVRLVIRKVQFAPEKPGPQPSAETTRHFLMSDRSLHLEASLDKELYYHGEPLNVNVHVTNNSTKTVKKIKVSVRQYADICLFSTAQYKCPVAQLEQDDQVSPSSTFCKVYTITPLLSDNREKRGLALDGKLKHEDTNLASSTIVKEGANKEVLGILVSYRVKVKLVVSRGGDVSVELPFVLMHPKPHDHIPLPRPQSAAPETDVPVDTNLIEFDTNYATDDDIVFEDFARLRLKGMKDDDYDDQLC

Experiments:
[1] = target: C-terminally large NanoLuc fragment (LgBiT)-fused Dr-GPR25 (zebrafish (Danio rerio)); experiment: split reporter
[2] = target: N-terminally secretory LgBiT (sLgBiT)-fused Dr-GPR25 (zebrafish (Danio rerio)); experiment: split reporter

| Molecule | binding [1] | binding [2] |
| --- | --- | --- |
| N-terminally SmBiT-fused human β-arrestin 2 (ARRB2) (from UniProt P32121 1-409) | binds | – |
| N-terminally 6×His-tagged wild-type (WT) human CXCL17 (ligand) SSLNPGVARGHRDRGQASRRWLQEGGQECECKDWFLRAPRRKFMTVSGLPKKQCPCDHFKGNVKKTRHQRHHRKPNKHSRACQQFLKQCQLRSFALPL | – | binds |
